These results are taken from PubChem BioAssay AID208 (DTP/NCI, 2004).

In the assay the test system is HT29 intrarenal xenograft, nude mice, tumor weight change. The assay is described as follows: NCI In Vivo Anticancer Drug Screen. Data for tumor model HT29;CX-1 Human Adenocarcinoma (MER+) (intrarenal inoculation) in NU/NU BALB/C (nude) mice. Conditions: T/C endpoint: mean tumor weight change, schedule: Q04DX004 (sc), higher T/C = larger tumour; for T/C: evaluated on day 15. The method, then: The antitumor activity of compounds was measured in mice bearing transplantable tumors. Survival or tumor size were measured and the results are expressed as the measurement made in the treated group (T) divided by the measurement made in the vehicle treated control group (C). The tumor model used in this assay is HT29;CX-1 Human Adenocarcinoma (MER+) (intrarenal inoculation) in NU/NU BALB/C (nude) mice

The list shows only some results of the screen, not a fair sample: it gathers some chemical classes. Other doses and runs of a compound may be missing. T/C: endpoint of the treated group in % of that of the vehicle group. Schedule codes are those of the source, taken here to give the interval after Q, in days (D) or hours (H), and the number of doses after X. Some doses have a count of surviving animals in place of a T/C: the source files T/C as zero there, which appears to mark a toxic dose or a test without result, not a measured value. Counts of survivors are from the toxicity check, whose day is not always given; animals may have died later.

On to `NC1CCCCC1.NP(=O)(O)N(CCCl)CCCl`, for which the T/C (dose: 37.5 mg/kg/injection, vehicle: water) was 27 % of control; the T/C (dose: 75.0 mg/kg/injection, vehicle: water) was 36 % of control; the T/C (dose: 150.0 mg/kg/injection, vehicle: saline) was 61 % of control; the T/C (dose: 150.0 mg/kg/injection, vehicle: water) was 108 % of control. Also, the survivor count (dose: 300.0 mg/kg/injection, vehicle: saline) is 0 of 3 on day 15 and the survivor count (dose: 600.0 mg/kg/injection, vehicle: saline) is 0 of 3 on day 15.
